Values from PubChem BioAssay AID504744 (Drosophila RNAi Screening Center, 2011).
In all, the deposit lists about 23,000 reagents; below is a random part of those that have a named target and a result. Over the whole deposit, 98 (0.43%) are marked active. 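Only hit calls are given; the phospho-dAkt signals, z-scores and hit direction were not deposited.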 Reagents against one gene are numbered here. A plus sign joins genes that one reagent is predicted to hit.

Test: 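Identify dsRNAs that increase or decrease phospho-dAkt after insulin treatment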 (primary screen)
System: Drosophila Kc167 cells
Reagent: long dsRNA against Drosophila genes, 250 ng dsRNA per well of a 384-well plate
Time to read-out: 3 days of knock-down, then overnight serum-free starvation before stimulation
Challenge: bovine insulin at 387 nM for 10 minutes after 12 h without serum
Read-out: 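In-cell antibody fluorescence for phospho-dAkt in each well over DNA-dye signal, with log2 residuals expressed as z-scores adjusted for cell count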
Active means: 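Under insulin, a gene counts as a hit if the average z-score of two replicates lies above 2.5 or below -2.5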

The opening 4 entries as a preview:
Gene | reagent no. | Outcome
Or23a (Odorant receptor 23a) | 1 | inactive
cato (cousin of atonal) | 1 | inactive
CG9406 | 1 | inactive
Alg14 (ALG14, UDP-N-acetylglucosaminyltransferase subunit) | 1 | inactive

Main list, from the start:
Gene | reagent no. | Outcome
Or23a (Odorant receptor 23a) | 1 | inactive
cato (cousin of atonal) | 1 | inactive
CG9406 | 1 | inactive
Alg14 (ALG14, UDP-N-acetylglucosaminyltransferase subunit) | 1 | inactive
awd (abnormal wing discs) | 1 | inactive
Ccp84Ag | 1 | inactive
Ccp84Ag | 2 | inactive
Nek2 | 1 | inactive
Zip71B (Zinc/iron regulated transporter-related protein 71B) | 1 | inactive
Lsm11 | 1 | inactive
Aos1 (Activator of SUMO 1) | 1 | inactive
CG5114 | 1 | inactive
Ip6k (Inositol hexakisphosphate kinase) | 1 | inactive
CG14834 | 1 | inactive
Nup75 (Nucleoporin 75kD) | 1 | inactive
Vrp1 (Verprolin 1) | 1 | inactive
CG8916 | 1 | inactive
CG17732 | 1 | inactive
zen2 (zerknullt-related) | 1 | inactive
Cp7Fc (Chorion protein c at 7F) | 1 | inactive
Acbp5 (Acyl-CoA binding protein 5) | 1 | inactive
CG14826 | 1 | inactive
Noc3 (Nucleolar complex protein 3) | 1 | inactive
l(3)S110416 (retired record) | 1 | inactive
Pstk + CG14210 + Tim9b | 1 | inactive
qkr58E-2 (quaking related 58E-2) | 1 | inactive
Osi7 (Osiris 7) | 1 | inactive
CG8031 | 1 | inactive
ImpE1 (Ecdysone-inducible gene E1) | 1 | inactive
ImpE1 (Ecdysone-inducible gene E1) | 2 | inactive
FANCI (Fanconi anemia complementation group I) | 1 | inactive
CG13551 | 1 | inactive
CG34230 | 1 | inactive
CG7183 | 1 | inactive
rdgB (retinal degeneration B) | 1 | inactive
CG6125 | 1 | inactive
Art6 (Arginine methyltransferase 6) | 1 | inactive
Cdk9 (Cyclin-dependent kinase 9) | 1 | inactive
Crk (Crk oncogene) | 1 | inactive
CG18735 | 1 | inactive
Rrp45 | 1 | inactive
CG13581 | 1 | inactive
Rpp21 (Ribonuclease P/MRP subunit p21) | 1 | inactive
eIF4E3 (eukaryotic translation initiation factor 4E3) | 1 | inactive
ZnT35C (Zinc transporter 35C) | 1 | inactive
CG10738 | 1 | inactive
Ubc87F (Ubiquitin conjugating enzyme 87F) | 1 | inactive
CG1394 | 1 | inactive
boil (boilerman) | 1 | inactive
CG2519 | 1 | inactive
CG9775 | 1 | inactive
CG9775 | 2 | inactive
CG17490 | 1 | inactive
CG17490 | 2 | inactive
Tsp26A (Tetraspanin 26A) | 1 | inactive
CG5641 | 1 | inactive
Top3beta (Topoisomerase 3beta) | 1 | inactive
Cyp6a15Psi (pseudo) | 1 | inactive
CG34040 | 1 | inactive
CG31454 | 1 | inactive
CG31454 | 2 | inactive
mib2 (mind bomb 2) | 1 | inactive
CG14974 | 1 | inactive
CG40378 (retired record) | 1 | inactive
CG40378 (retired record) | 2 | inactive
